Consider 5 molecules from publication PMC11514447, “Eukaryotic initiation factor 4B is a multi-functional RNA binding protein that regulates histone mRNAs”.

The chains behind the UniProt entries cited, without tags or fusion partners.
UniProt P23588: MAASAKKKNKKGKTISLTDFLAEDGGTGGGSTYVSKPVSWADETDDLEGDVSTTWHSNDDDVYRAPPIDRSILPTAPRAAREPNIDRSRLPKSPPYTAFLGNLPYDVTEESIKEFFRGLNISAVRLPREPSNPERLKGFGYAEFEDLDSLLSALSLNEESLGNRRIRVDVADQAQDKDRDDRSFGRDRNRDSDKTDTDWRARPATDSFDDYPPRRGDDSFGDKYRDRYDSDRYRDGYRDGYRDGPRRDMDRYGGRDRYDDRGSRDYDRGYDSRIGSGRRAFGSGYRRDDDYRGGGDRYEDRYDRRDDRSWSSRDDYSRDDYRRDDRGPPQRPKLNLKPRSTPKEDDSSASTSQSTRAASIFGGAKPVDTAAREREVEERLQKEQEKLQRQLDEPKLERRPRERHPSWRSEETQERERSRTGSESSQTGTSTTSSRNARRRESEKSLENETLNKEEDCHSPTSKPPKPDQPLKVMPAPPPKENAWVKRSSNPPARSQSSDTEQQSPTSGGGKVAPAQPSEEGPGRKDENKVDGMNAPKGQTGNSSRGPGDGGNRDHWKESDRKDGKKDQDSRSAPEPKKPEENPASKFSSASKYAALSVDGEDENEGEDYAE
UniProt Q13283: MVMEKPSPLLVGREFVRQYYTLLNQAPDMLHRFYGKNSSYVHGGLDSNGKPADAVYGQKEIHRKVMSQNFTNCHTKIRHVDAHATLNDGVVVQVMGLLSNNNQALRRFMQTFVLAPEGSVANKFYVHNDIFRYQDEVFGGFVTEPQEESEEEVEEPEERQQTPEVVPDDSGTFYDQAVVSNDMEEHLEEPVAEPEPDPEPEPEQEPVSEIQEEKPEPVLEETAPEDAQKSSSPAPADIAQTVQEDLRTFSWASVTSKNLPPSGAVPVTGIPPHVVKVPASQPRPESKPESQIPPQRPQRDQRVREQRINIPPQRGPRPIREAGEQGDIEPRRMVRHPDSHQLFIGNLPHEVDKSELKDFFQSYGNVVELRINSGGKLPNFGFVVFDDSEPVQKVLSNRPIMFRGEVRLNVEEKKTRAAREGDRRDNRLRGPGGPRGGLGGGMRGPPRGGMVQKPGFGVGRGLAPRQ
UniProt P60842: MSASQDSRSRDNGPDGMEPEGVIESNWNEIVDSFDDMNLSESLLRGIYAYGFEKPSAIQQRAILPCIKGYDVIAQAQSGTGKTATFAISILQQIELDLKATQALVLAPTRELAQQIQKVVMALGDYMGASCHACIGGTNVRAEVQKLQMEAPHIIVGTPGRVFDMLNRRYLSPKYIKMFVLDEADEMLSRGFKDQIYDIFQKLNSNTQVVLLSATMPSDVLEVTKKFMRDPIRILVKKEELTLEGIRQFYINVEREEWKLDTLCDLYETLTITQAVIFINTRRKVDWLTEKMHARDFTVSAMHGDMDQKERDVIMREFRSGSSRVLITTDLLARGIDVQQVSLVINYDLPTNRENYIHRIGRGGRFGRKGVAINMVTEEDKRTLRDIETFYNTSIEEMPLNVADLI
UniProt Q14240: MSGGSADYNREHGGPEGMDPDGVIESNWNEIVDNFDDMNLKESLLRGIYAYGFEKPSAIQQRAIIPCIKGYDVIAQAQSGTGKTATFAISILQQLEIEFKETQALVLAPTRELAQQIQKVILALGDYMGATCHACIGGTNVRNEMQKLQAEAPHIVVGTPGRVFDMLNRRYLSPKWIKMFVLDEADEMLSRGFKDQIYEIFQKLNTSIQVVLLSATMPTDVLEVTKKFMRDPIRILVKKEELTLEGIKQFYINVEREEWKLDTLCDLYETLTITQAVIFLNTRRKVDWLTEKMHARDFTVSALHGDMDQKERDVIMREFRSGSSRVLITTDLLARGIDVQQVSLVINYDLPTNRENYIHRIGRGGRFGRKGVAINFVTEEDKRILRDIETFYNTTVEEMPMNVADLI
UniProt P38919: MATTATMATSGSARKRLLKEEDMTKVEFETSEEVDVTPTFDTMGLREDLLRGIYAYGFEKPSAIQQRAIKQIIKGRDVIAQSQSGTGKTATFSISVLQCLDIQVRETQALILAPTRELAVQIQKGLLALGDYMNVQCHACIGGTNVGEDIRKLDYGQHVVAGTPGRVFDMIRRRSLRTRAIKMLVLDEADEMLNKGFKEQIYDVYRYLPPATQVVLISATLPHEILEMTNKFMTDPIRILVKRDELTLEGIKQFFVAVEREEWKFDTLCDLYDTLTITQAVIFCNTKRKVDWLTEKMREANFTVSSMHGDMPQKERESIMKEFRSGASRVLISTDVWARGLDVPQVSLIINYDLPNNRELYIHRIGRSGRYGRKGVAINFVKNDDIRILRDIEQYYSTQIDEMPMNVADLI

These are yes or no findings as the source states them, for the method shown. Binding seen in cells or lysates may run through a third protein. Some entries that bind do so weakly or less than the wild type.

For the assay, the target named is eukaryotic initiation factor 4B (human (endogenous in DoHH-2 and GM01953)) (UniProt P23588). The assay can be described thus: co-IP; eIF4B antibody (or rabbit IgG) coupled to Dynabeads; DoHH-2 and GM01953 cell lysates; RNA digested with RNase T1; immunoblotting.

As to G3BP1 (from UniProt Q13283 1-466), the binding entry is recorded as “binds”. The same measure for eIF4A1 (from UniProt P60842 1-406): “binds”. The same measure for eIF4A2 (from UniProt Q14240 1-407): “binds”; for eIF4A3 (from UniProt P38919 1-411): “binds”.

B1: UPF1 (up-frameshift protein 1) (protein, UniProt Q92900 1-1129)
chain: MSVEAYGPSSQTLTFLDTEEAELLGADTQGSEFEFTDFTLPSQTQTPPGGPGGPGGGGAGGPGGAGAGAAAGQLDAQVGPEGILQNGAVDDSVAKTSQLLAELNFEEDEEDTYYTKDLPIHACSYCGIHDPACVVYCNTSKKWFCNGRGNTSGSHIVNHLVRAKCKEVTLHKDGPLGETVLECYNCGCRNVFLLGFIPAKADSVVVLLCRQPCASQSSLKDINWDSSQWQPLIQDRCFLSWLVKIPSEQEQLRARQITAQQINKLEELWKENPSATLEDLEKPGVDEEPQHVLLRYEDAYQYQNIFGPLVKLEADYDKKLKESQTQDNITVRWDLGLNKKRIAYFTLPKTDSGNEDLVIIWLRDMRLMQGDEICLRYKGDLAPLWKGIGHVIKVPDNYGDEIAIELRSSVGAPVEVTHNFQVDFVWKSTSFDRMQSALKTFAVDETSVSGYIYHKLLGHEVEDVIIKCQLPKRFTAQGLPDLNHSQVYAVKTVLQRPLSLIQGPPGTGKTVTSATIVYHLARQGNGPVLVCAPSNIAVDQLTEKIHQTGLKVVRLCAKSREAIDSPVSFLALHNQIRNMDSMPELQKLQQLKDETGELSSADEKRYRALKRTAERELLMNADVICCTCVGAGDPRLAKMQFRSILIDESTQATEPECMVPVVLGAKQLILVGDHCQLGPVVMCKKAAKAGLSQSLFERLVVLGIRPIRLQVQYRMHPALSAFPSNIFYEGSLQNGVTAADRVKKGFDFQWPQPDKPMFFYVTQGQEEIASSGTSYLNRTEAANVEKITTKLLKAGAKPDQIGIITPYEGQRSYLVQYMQFSGSLHTKLYQEVEIASVDAFQGREKDFIILSCVRANEHQGIGFLNDPRRLNVALTRARYGVIIVGNPKALSKQPLWNHLLNYYKEQKVLVEGPLNNLRESLMQFSKPRKLVNTINPGARFMTTAMYDAREAIIPGSVYDRSSQGRPSSMYFQTHDQIGMISAGPSHVAAMNIPIPFNLVMPPMPPPGYFGQANGPAAGRGTPKGKTGRGGRQKNRFGLPGPSQTNLPNSQASQDVASQPFSQGALTQGYISMSQPSQMSQPGLSQPELSQDSYLGDEFKSQIDVALSQDSTYQGERAYQHGGVTGLSQY
Regarding B1, the binding entry was “binds”.
